Experimental data reported in publication doi:10.1101/456418.
Results are given in words; binding and its absence hold for the method and conditions named. In cells and extracts the contact can be indirect. A result given as binding can be weak or reduced; the word gives no strength.

B1: MERS1 NUDIX hydrolase (PPsome subunit) (enzyme, UniProt B6SBM0 1-395)
chain: MRKQLFFTLARPCVAVGRRFISGDNKSIDSSAFISDDDALRGELASALDTEGHALPFDVHLQQPHSSGDGTAGDTSTIQLEKLSHPPARFDLLTNSFVYKWQTKAALARKVSGPMREWAAELKYRTGVHIELEPTYPERLSENAVKGSGSDDGDGTQWGAYETADDVDITVYLFGSERGIFNCHKLMEAAIQQDPVYVRLGIFRRLANSSEVEWLMLRRINRELRPPDIPPISLKLPGKWTLLYERYKEAAIRTLWEETGITVDASNVYPTGHLYQTVPQYYWRVPVRYFVAEVPSDIRVEGPQVVPLQYMRNWDARLLRQSPDPIDRAWAQLADPATGCAWMKASMIDQLQKPLRGDNYMAIRYTPPPYSNLQEVVGLGDGSITPSTGNGEDAS
B2: KPAP1 poly(A) polymerase (enzyme, UniProt B3FB38 1-527)
chain: MRKFSAFRSGNTGVKRCITLPWKSSLPPKSDSQWEGLGKSVVRMALASDTGRSAFDECSTARQQLETLVQSTGYDASVFAFGGIVVMGLLEVGGDADFVGVADVEPGVAEAGEIVSRLSREMRRLGLKSSALPKARVPVIKVDRVSKSLPGTPLHHLSTCGIFQFTRQMNNNECISFKSRMEENFGAVNTEWSNNQQFSTVEFSSSSALVAALTEVKRHEGVDIPLRLPVDPRNGPELYRLSFDFCFSSVGLRNSYLLSDVLSKYVFSRHLLLLIKRWGRSSGVINSIDGLLASYALTVMCAHFLIKVGVIPKVSTLRSADEPQLLPPFPDYRPLHDGEDCDLAELGFLTAAFFEYYGAVFDYGKNVVCTTNINLLKKTMRWEKSPGTESGRPPFFEFAIKDPYGLDNIGRNLDSEATEYVRSAHSAALATLLQERGDPDFTVNIITKSPPRPARRSRTLASRGIASATYSSDQLEARHLLKKVAFHERRKSMERFGARAARHTEKQRVVSNVAKDVLGWIKCDNHQ

Target: Kinetoplast Polyadenylation Factor 4, C-terminally TAP-tagged (Trypanosoma brucei)
Test: co-IP

Row | Binder | binding
1 | B1 | binds
2 | B2 | binds
